# Measured values reported in paper PMC6828677.
# Protein sequences, listed by entry. Tags and fused reporters are not part of them.
# UniProt P25963: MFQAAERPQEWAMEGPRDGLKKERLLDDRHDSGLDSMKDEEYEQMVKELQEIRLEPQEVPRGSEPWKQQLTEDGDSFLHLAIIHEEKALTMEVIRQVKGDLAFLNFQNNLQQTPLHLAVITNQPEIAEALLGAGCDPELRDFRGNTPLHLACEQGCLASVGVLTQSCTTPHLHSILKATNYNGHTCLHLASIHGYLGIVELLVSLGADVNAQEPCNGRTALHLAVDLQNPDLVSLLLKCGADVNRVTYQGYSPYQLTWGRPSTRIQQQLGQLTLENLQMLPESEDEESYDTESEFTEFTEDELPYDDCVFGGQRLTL
# UniProt Q7Z6E9: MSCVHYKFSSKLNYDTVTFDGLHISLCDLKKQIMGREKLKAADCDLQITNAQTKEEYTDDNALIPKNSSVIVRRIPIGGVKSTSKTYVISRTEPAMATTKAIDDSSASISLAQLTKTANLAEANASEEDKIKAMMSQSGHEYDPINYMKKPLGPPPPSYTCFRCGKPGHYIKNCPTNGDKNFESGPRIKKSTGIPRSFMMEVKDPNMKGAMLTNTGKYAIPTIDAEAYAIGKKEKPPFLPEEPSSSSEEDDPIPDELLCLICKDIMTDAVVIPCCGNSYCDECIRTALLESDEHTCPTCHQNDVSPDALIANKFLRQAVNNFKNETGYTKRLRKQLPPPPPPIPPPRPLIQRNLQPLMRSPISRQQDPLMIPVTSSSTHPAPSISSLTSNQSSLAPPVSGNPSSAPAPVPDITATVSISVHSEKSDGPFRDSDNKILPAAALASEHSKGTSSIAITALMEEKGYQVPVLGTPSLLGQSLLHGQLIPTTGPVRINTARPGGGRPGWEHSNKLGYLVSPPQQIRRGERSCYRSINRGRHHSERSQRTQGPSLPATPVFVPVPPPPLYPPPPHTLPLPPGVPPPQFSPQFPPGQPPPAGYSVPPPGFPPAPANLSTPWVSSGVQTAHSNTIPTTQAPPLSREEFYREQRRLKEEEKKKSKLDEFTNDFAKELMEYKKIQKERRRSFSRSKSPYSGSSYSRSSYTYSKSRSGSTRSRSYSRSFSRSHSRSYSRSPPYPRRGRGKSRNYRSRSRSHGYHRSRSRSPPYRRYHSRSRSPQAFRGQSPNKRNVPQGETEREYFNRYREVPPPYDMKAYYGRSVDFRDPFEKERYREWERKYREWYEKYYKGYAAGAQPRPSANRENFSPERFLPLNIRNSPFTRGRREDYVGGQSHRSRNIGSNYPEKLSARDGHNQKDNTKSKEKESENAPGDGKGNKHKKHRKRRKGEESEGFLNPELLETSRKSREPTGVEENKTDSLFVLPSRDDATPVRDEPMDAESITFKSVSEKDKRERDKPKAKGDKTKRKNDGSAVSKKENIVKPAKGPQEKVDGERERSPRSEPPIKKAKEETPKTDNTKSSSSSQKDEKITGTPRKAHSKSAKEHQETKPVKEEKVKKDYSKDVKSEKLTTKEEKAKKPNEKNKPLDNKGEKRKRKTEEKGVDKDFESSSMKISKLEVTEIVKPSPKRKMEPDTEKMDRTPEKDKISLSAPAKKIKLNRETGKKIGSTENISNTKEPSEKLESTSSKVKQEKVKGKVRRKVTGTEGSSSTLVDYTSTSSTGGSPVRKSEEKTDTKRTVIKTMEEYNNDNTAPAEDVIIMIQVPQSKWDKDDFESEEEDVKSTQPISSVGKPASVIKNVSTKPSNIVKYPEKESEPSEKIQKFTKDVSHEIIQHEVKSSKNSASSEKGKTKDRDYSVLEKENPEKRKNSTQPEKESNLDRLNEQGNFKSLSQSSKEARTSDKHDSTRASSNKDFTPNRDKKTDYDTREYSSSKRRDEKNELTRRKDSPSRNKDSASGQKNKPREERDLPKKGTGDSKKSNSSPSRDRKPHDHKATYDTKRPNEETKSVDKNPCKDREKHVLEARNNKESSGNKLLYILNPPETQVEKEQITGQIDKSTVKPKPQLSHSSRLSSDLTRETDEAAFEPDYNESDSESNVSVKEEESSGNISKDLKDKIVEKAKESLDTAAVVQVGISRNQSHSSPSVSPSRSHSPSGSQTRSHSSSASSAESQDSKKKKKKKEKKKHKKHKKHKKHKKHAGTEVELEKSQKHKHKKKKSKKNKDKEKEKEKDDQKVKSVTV
# Results are given in words; binding and its absence hold for the method and conditions named. Binding seen in cells or lysates may run through a third protein. Some entries that bind do so weakly or less than the wild type.
# Biological target: Flag-IκBα (UniProt P25963)
# Assay: co-IP; HEK293 cells co-transfected with Flag-IκBα and HA-RBBP6 (full length or ΔRing Finger); lysates incubated with 2 μg antibody at 4 °C overnight, protein A/G agarose beads 4 h at 4 °C, PBS washes, western blot
substance,measurement,value
HA-RBBP6 (full length) (from UniProt Q7Z6E9 1-1792),binding,binds
